No constants are given. Whether binding was seen depends on the method and setting. Sequences can lack the tags named with a protein.
Target: EL346 (light-oxygen-voltage histidine kinase from Erythrobacter litoralis HTCC2594) (Erythrobacter litoralis HTCC2594) (UniProt Q2NB77)
Test: SEC-MALS; LOV-HKs and RH376 deletion mutants; ~15 μM sample (400 μl) with 1 mM ATP on Superdex 200 GL 10/300 in HSEC buffer (50 mM Hepes pH 7.5, 100 mM NaCl, 10 mM MgCl2, 0.5 mM DTT) with 1 mM ATP; dark (dim red light) and lit (blue LED) runs; FPLC at 4 °C, MALS and refractive index at 25 °C; n = 1; oligomeric state on a qualitative five-bin scale; both purified

binding: no binding (tested: ~15 μM)
B1: EL346 (light-oxygen-voltage histidine kinase from Erythrobacter litoralis HTCC2594) (enzyme, UniProt Q2NB77 1-346)
chain: MAVGLAEHDKEAWGRLPFSLTIADISQDDEPLIYVNRAFEQMTGYSRSSVVGRNCRFLQGEKTDPGAVERLAKAIRNCEEVEETIYNYRADGEGFWNHLLMGPLEDQDEKCRYFVGIQVDMGQSESPDRATELDRQLAEVQHRVKNHLAMIVSMIRIQSSQAGGVGSQFDSLSRRVEALQLLYQEMDIAGAAKATDKIIPLGAYLGRIASAINHIDGRGAIKVNVQADTVDVPVETAGRIGLLVSEVLTNALQHAFSDRASGVVQLRSSVMSGEQLRVTVEDDGRGIPEDCDWPNEGNLGSRIVRQLVQGLGAELNVTRGGTGTIVNIDIPLSQQKTLIADERTKD

— article PMC10359499
